Assay results taken from article PMC12412546.
No constants are given. Whether binding was seen depends on the method and setting. In cells and extracts the contact can be indirect. Here binding means that the protein was enriched with, or labelled near, the bait; the list need not be complete. Sequences can lack the tags named with a protein.

By UniProt entry, the sequences of proteins in these tests, tags left out.
UniProt P46940: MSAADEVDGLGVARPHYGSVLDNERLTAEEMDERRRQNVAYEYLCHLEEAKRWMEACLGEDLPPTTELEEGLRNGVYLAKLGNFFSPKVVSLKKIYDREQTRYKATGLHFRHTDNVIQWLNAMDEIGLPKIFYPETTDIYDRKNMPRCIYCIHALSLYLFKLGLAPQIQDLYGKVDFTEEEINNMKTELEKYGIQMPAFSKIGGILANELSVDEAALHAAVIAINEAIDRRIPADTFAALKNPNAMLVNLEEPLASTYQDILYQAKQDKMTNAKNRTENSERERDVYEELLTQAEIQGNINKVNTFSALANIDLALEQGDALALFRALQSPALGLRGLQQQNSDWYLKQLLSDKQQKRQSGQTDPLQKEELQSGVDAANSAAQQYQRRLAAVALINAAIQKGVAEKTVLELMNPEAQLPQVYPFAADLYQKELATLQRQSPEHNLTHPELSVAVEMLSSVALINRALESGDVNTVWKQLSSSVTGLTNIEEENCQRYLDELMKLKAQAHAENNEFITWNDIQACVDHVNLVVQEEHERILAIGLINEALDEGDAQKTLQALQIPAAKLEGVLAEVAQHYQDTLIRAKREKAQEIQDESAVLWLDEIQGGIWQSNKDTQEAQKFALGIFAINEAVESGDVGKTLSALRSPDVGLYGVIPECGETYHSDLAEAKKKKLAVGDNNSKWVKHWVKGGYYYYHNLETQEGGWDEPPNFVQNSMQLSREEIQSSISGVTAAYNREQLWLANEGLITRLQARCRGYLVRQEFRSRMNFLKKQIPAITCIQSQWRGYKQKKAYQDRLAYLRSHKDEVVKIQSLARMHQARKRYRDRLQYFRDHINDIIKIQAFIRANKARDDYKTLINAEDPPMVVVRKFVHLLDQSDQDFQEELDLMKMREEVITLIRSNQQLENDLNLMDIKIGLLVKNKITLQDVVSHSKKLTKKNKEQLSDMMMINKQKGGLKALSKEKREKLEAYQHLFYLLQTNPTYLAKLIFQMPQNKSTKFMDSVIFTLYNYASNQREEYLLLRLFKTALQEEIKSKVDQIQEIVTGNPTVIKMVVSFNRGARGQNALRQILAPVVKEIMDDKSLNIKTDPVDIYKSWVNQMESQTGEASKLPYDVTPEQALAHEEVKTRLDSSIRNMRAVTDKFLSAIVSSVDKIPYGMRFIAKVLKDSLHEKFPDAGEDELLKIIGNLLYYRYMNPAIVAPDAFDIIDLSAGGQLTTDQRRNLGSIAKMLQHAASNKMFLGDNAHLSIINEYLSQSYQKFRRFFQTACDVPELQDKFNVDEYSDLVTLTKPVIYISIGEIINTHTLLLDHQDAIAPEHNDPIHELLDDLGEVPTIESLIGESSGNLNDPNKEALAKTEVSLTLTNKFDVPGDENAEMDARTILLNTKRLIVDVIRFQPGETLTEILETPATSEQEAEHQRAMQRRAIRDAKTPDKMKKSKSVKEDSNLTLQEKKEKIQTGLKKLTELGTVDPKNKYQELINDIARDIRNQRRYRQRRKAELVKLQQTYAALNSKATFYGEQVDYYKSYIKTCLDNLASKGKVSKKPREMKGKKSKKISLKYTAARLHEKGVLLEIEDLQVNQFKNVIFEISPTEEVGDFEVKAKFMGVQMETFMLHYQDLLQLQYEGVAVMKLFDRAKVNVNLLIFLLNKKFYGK
UniProt Q03135: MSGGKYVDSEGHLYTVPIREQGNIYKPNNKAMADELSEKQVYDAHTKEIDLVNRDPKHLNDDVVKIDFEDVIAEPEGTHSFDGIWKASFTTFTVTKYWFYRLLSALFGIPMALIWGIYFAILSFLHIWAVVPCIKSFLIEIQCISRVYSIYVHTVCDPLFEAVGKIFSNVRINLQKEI

T1: cytoskeletal associated protein Palladin (PALLD) (human (endogenous in the paper's human pancreatic cell lines; line not stated for this experiment)) (UniProt Q8WX93)
T1 sequence: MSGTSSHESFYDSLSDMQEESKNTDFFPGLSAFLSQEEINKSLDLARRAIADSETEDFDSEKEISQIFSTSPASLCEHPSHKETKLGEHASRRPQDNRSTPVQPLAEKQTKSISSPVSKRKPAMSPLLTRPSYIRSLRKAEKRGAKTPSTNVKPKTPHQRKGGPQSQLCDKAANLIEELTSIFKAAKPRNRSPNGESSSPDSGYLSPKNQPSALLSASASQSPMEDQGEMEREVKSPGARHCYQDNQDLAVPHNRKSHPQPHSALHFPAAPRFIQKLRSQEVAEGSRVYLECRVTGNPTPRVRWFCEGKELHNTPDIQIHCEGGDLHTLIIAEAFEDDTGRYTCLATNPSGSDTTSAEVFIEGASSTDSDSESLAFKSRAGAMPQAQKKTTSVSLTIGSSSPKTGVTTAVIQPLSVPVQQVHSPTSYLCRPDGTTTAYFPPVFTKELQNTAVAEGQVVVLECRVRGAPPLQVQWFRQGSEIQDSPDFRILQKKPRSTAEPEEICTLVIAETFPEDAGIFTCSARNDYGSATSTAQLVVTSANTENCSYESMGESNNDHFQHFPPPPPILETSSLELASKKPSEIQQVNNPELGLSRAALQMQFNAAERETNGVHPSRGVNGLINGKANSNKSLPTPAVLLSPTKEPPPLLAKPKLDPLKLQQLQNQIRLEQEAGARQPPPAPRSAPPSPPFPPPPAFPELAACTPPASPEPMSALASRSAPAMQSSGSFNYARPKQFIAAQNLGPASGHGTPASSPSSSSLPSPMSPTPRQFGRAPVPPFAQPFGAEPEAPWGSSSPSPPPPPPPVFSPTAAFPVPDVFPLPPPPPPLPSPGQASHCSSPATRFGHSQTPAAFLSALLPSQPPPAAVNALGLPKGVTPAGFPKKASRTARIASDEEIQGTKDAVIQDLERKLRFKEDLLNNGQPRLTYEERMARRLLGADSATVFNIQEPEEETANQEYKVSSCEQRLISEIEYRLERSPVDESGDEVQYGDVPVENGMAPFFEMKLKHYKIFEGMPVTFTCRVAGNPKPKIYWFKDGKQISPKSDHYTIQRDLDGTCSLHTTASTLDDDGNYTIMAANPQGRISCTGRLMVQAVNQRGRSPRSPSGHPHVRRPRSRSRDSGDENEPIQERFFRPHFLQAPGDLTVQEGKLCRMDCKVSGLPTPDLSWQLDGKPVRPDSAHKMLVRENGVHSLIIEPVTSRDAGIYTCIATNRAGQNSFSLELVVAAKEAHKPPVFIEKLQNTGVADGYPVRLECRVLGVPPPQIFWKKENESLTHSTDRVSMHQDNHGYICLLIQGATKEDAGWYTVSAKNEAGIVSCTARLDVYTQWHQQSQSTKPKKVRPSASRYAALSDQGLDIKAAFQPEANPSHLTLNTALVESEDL

B1: TMEM43 (protein, UniProt Q9BTV4 1-400)
chain: MAANYSSTSTRREHVKVKTSSQPGFLERLSETSGGMFVGLMAFLLSFYLIFTNEGRALKTATSLAEGLSLVVSPDSIHSVAPENEGRLVHIIGALRTSKLLSDPNYGVHLPAVKLRRHVEMYQWVETEESREYTEDGQVKKETRYSYNTEWRSEIINSKNFDREIGHKNPSAMAVESFMATAPFVQIGRFFLSSGLIDKVDNFKSLSLSKLEDPHVDIIRRGDFFYHSENPKYPEVGDLRVSFSYAGLSGDDPDLGPAHVVTVIARQRGDQLVPFSTKSGDTLLLLHHGDFSAEEVFHRELRSNSMKTWGLRAAGWMAMFMGLNLMTRILYTLVDWFPVFRDLVNIGLKAFAFCVATSLTLLTVAAGWLFYRPLWALLIAGLALVPILVARTRVPAKKLE

What follows are molecules tested against T1, cytoskeletal associated protein Palladin (PALLD) (human (endogenous in the paper's human pancreatic cell lines; line not stated for this experiment)) (assay: affinity purification with mass spectrometry; cell lysate incubated with anti-PALLD antibody or rabbit IgG (2 h, 4 °C), then overnight at 4 °C with 2% BSA and protein A-Sepharose beads; eluate on SDS-PAGE, trypsin digest, LC-MS/MS).

binding, binds:
IQ motif containing GTPase-activating protein 1 (IQGAP1) (from UniProt P46940 1-1657), CAV1 (from UniProt Q03135 1-178), B1
